Results from publication PMC10308901.
Where a chain is given by its changes, count along the chain named. No constants are given. Whether binding was seen depends on the method and setting. Values belong to the binder of their own block, whether it stands above or below them.

Columns and labels:
Experiment in all cases: SEC; both purified
GroEL2 sybody number 10 = target: GroEL2 sybody number 10
GroEL2 sybody number 7 = target: GroEL2 sybody number 7
GroEL2 sybody number 8 = target: GroEL2 sybody number 8
GroEL2 sybody number 28 = target: GroEL2 sybody number 28
GroEL1 sybody number 31 = target: GroEL1 sybody number 31
GroEL1 sybody number 5 = target: GroEL1 sybody number 5
GroEL2 sybody number 11 = target: GroEL2 sybody number 11
GroEL2 sybody number 27 = target: GroEL2 sybody number 27
GroEL2 sybody number 32 = target: GroEL2 sybody number 32
GroEL2 sybody number 9 = target: GroEL2 sybody number 9
GroEL2 sybody number 33 = target: GroEL2 sybody number 33
GroEL2 sybody number 22 = target: GroEL2 sybody number 22
GroEL2 sybody number 31 = target: GroEL2 sybody number 31
GroEL2 sybody number 19 = target: GroEL2 sybody number 19
GroEL2 sybody number 1 = target: GroEL2 sybody number 1
GroEL2 sybody number 2 = target: GroEL2 sybody number 2
GroEL2 sybody number 3 = target: GroEL2 sybody number 3
GroEL1 sybody number 18 = target: GroEL1 sybody number 18
GroEL1 sybody number 9 = target: GroEL1 sybody number 9
GroEL1 sybody number 12 = target: GroEL1 sybody number 12
GroEL2 sybody number 16 = target: GroEL2 sybody number 16
GroEL1 sybody number 1 = target: GroEL1 sybody number 1

binding (GroEL2 sybody number 10): no binding
B1: GroEL2 sybody number 10 (VHH)
VHH: QVQLVESGGGLVQAGGSLRLSCAASGFPVKHWYMHWYRQAPGKEREWVAAIQSTGSYTAYADSVKGRFTISRDNAKNTVYLQMNSLKPEDTAVYYCNVKEYGFYHASYDYWGQGTQVTVSA

binding (GroEL2 sybody number 28): no binding
B4: GroEL2 sybody number 28 (VHH)
VHH: QVQLVESGGGLVQAGGSLRLSCAASGFPVDAYWMYWYRQAPGKEREWVAAIMSSGHGTWYADSVKGRFTISRDNAKNTVYLQMNSLKPEDTAVYSCNVKDKGAQAAWYDYWGQGTQVTVSA

binding (GroEL2 sybody number 11): no binding
B7: GroEL2 sybody number 11 (VHH)
VHH: QVQLVESGGGLVQAGGSLRLSCAASGFPVDSAYMWWYRQAPGKEREWVAAIESNGEYTFYADSVKGRFTISRDNAKNTVYLQMNSLKPEDTAVYYCNVKDTGAHHSYYDYWGQGTQVTVSA

binding (GroEL2 sybody number 27): no binding
B8: GroEL2 sybody number 27 (VHH)
VHH: B7 VHH with D30W, S31K, E56A, A103S, H104D, H105S, S106E, Y107N

binding (GroEL2 sybody number 32): no binding
B9: GroEL2 sybody number 32 (VHH)
VHH: QVQLVESGGGLVQAGGSLRLSCAASGFPVVSQFMEWHRQAPGKEREWVAAIDSTGYSTFYADSVKGRFTISRDNAKNTVYLQMNSLKPEDTAVYYCNVKDAGEGQEQYDYWGQGTQVTVSA

binding (GroEL2 sybody number 9): no binding
B10: GroEL2 sybody number 9 (VHH)
VHH: QVQLVESGGGLVQAGGSLRLSCAASGFPVYQSWMYWYRQAPGKEREWVAAIMSDGSGTWYADSVKGRFTISRDNAKNTVYLQMNSLKPEDTAVYYCNVKDFGHSRSRYDYWGQGTQVTVSA

binding (GroEL2 sybody number 33): no binding
B11: GroEL2 sybody number 33 (VHH)
VHH: B10 VHH with S32H, D54Q, S56A, K65R, F101L, H103K, S104A, R105E, S106Y, R107N

binding (GroEL2 sybody number 22): no binding
B12: GroEL2 sybody number 22 (VHH)
VHH: B10 VHH with Q31H, S56H, F101T, H103S, R105T, S106T, R107I

binding (GroEL2 sybody number 31): no binding
B13: GroEL2 sybody number 31 (VHH)
VHH: B10 VHH with Y30W, Q31M, S32E, D54E, S56D, H103Y, S104N, R105N, S106N, R107Y

binding (GroEL2 sybody number 19): no binding
B14: GroEL2 sybody number 19 (VHH)
VHH: QVQLVESGGGLVQAGGSLRLSCAASGFPVEWLEMAWYRQAPGKEREWVAAIYSYGMETEYADSVKGRFTISRDNAKNTVYLQMNSLKPEDTAVYYCNVKDGGHAAWWYDYWGQGTQVTVSA

binding (GroEL2 sybody number 16): no binding
B21: GroEL2 sybody number 16 (VHH)
VHH: QVQLVESGGGLVQAGGSLRLSCAASGFPVSSSTMTWYRQAPGKEREWVAAIESWGAYTWYADSVKGRFTISRDNAKNTVYLQMNSLKPEDTAVYYCNVKDYDGVADVIYDYWGQGTQVTVSA

Second part, the binder before the results:

B2: GroEL2 sybody number 7 (VHH)
VHH: QVQLVESGGGLVQAGGSLRLSCAASGFPVNDAWMYWYRQAPGKEREWVAAIMSMGFGTWYADSVKGRFTISRDNAKNTVYLQMNSLKPEDTAVYYCNVKDRGKEHFSYDYWGQGTQVTVSA
binding (GroEL2 sybody number 7): no binding

B3: GroEL2 sybody number 8 (VHH)
VHH: B10 VHH with Q31M, D54E, S56A, F101T, H103S, S104F, R105H, S106A, R107Q
binding (GroEL2 sybody number 8): no binding

B5: GroEL1 sybody number 31 (VHH)
VHH: QVQLVESGGGSVQAGGSLRLSCAASGTIYKIYYLGWFRQAPGKEREGVAALNTFSGGTYYADSVKGRFTVSLDNAKNTVYLQMNSLKPEDTALYYCAAAYDMEGYAWPLYWWHYEYWGQGTQVTVSA
binding (GroEL1 sybody number 31): no binding

B6: GroEL1 sybody number 5 (VHH)
VHH: QVQLVESGGGLVQAGGSLRLSCAASGFPVEHKQMRWYRQAPGKEREWVAAIESSGQYTIYADSVKGRFTISRDNAKNTVYLQMNSLKPEDTAVYYCFVGVGAGYYGQGTQVTVSA
binding (GroEL1 sybody number 5): no binding

B15: GroEL2 sybody number 1 (VHH)
VHH: QVQLVESGGGLVQAGGSLRLSCAASGFPVAITYMHWYRQAPGKEREWVAAISSTGKTTWYADSVKGRFTISRDNAKNTVYLQMNSLKPEDTAVYYCLVEVGHYYKGQGTQVTVSA
binding (GroEL2 sybody number 1): no binding

B16: GroEL2 sybody number 2 (VHH)
VHH: QVQLVESGGGLVQAGGSLRLSCAASGFPVSSSTMTWYRQAPGKEREWVAAIDSVGNETYYADSVKGRFTISRDNAKNTVYLQMNSLKPEDTAVYYCAVFVGSYYGQGTQVTVSA
binding (GroEL2 sybody number 2): no binding

B17: GroEL2 sybody number 3 (VHH)
VHH: QVQLVESGGGLVQAGGSLRLSCAASGFPVAYWEMVWYRQAPGKEREWVAAIRSTGWKTVYADSVKGRFTISRDNAKNTVYLQMNSLKPEDTAVYYCTAVYVGVHYKGQGTQVTVSA
binding (GroEL2 sybody number 3): no binding

B18: GroEL1 sybody number 18 (VHH)
VHH: QVQLVESGGGLVQAGGSLRLSCAASGFPVKTKHMYWYRQAPGKEREWVAAITSIGMITAYADSVKGRFTISRDNAKNTVYLQMNSLKPEDTAVYYCNVKDWGTNRQAYDYWGQGTQVTVSA
binding (GroEL1 sybody number 18): no binding

B19: GroEL1 sybody number 9 (VHH)
VHH: QVQLVESGGGLVQAGGSLRLSCAASGLPVWQQGMTWYRQAPGKEREWVAAIDSVGAQTYYADSVKGRFTISRDNAKNTVYLQMNSLKPEDTAVYYCAVNVGARYIGQGTQVTVSA
binding (GroEL1 sybody number 9): no binding

B20: GroEL1 sybody number 12 (VHH)
VHH: QVQLVESGGGLVQAGGSLRLSCAASGFPVTQAWMEWYRQAPGKEREWVAAIFSHGGGTFYADSVKGRFTISRDNAKNTVYLQMNSLKPEDTAVYYCNVKDTGERDNWYDYWGQGTQVTVSA
binding (GroEL1 sybody number 12): no binding

B22: GroEL1 sybody number 1 (VHH)
VHH: QVQLVESGGGLVQAGGSLRLSCAASGFPVEQRQMYWYRQAPGKEREWVAAIQSYGKRTKYADSVKGRFTISRDNAKNTVYLQMNSLKPEDTAVYYCVVYVGGGYKGQGTQVTVSA
binding (GroEL1 sybody number 1): no binding
